# Percent effect of library compounds

A: 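Phenotypic screen: M. tuberculosis growth, cholesterol and DPPC medium, 4 days; the read-out is not stated. Compounds at 50 µM. Direction is inferred from retests: higher values go with more growth inhibition. About 69,000 compounds were tested under these conditions; 0.54% (about 370) showed 50% or more at least once.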
B: 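Growth of Mycobacterium tuberculosis over 3 days (7H9 medium with glucose and tyloxapol); the read-out is not stated. Concentration: 50 µM. Direction is inferred from retests: higher values go with more growth inhibition. Of about 69,000 compounds tested this way, about 760 (1.1%) reached 50% or more in at least one test.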

Results are given as percent effect. The controls that fix the scale are not given in the record; negative values are as filed. Compounds were drawn at random from those tested, without regard to their results. Two or more numbers in one place are separate tests of the same structure; such repeats can differ widely.

Compound	A	B
CC(C)c1noc(CN2CCN(C(=O)c3cccnc3O)CC2)n1	-2.648%	-5.744% and -7.231%
O=C(c1cc2cc(F)ccc2[nH]1)N1CCCCC1Cn1cccn1 (stereo unspecified)	5.556%	30.91%
Cc1cc(C(=O)Nc2ccnc(OC3CCOC3)c2)c(C)o1 (stereo unspecified)	27.64%	6.092% and 4.295%
CC(C)N(CC(N)=O)Cc1cccc(Br)c1	-15.28%	-4.051% and -9.737%
COc1ccc(-n2cnnc2SCC(=O)NC(C)C)cn1	-6.362% and -14.02%	16.59%
O=C(c1ncoc1C1CC1)N1CCN(CCOc2ccccc2)CC1	-4.315%	1.351% and -0.3622%
CCOCCCNc1ncc(-c2onc(C)c2C)c(-c2ccco2)n1	-0.9017% and 17.06%	4.448%
Cn1ccnc1CN1CCCN(C(=O)C2(C#N)CCCCC2)CC1	24.18%	-11.63%
[H][C@]12CC[C@]([H])(CN(C(=O)Cc3cccnc3)C1)N(Cc1ccccc1)C2=O	-3.468%	-1.921% and -3.26%
Cc1ccc(C(=O)NCCNC(=O)N(C)C(C)c2ccccn2)cc1 (stereo unspecified)	-13.42% and -8.552%	3.54%
CN1CCCC1CNC(=O)CCCOc1ccc(Br)cc1 (stereo unspecified)	11.52%	-2.174%
O=C(C1CCCC1)N1CCC(C(O)c2ccc(F)cc2)CC1 (stereo unspecified)	8.92%	-10.55%
O=C(NC1(c2nc(C3CC3)no2)CCCCC1)c1ccncc1	12.37%	-5.086%
Cc1cnc2[nH]c(C(F)(F)F)c(CN3CCOCC3)c2c1	-10.26%	-11.09%
CCN1CCCC(O)(CNCc2ccccn2)C1 (stereo unspecified)	9.792%	27.4%
Cc1ccc(O)c(CN2CCCCC2CCN2CCOCC2)c1 (stereo unspecified)	0.325%	14.08%
Cc1ccc(CC2COCCN(S(C)(=O)=O)C2)nc1 (stereo unspecified)	-6.062%	19.55%
CN1C(=O)CCCC12CCCN(C(=O)c1cc(F)cc(F)c1)C2 (stereo unspecified)	1.31% and -1.877%	-28.21%
CCN1CCN(c2ccc(C(=O)NC(C)c3ccncc3)cc2)CC1 (stereo unspecified)	17.75%	-7.847%
COc1c(Br)cccc1CCNC(=O)c1ncoc1C	10.51%	29.36% and 13.69%
COC(=O)c1ccc(CNCc2ccn(C)n2)cc1	-13.06%	7.004%
N#Cc1ccccc1OCCN1CCCC1Cn1cncn1 (stereo unspecified)	-27.51%	-29.25%
CCc1nc(CN(CC(N)=O)C(C)C)cs1	-1.098%	5.063%
CCOC(=O)N(C)C1CCN(Cc2csc(C)n2)CC1	11.57%	13.62% and -6.46%
CN(C)C(c1ccccn1)[C@H]1CC[C@H](CNC(=O)CC2CCCC2)CC1 (stereo partly specified)	1.286%	31.25%
Cn1ccc2cc(C(=O)NC3CCS(=O)(=O)C3)ccc21 (stereo unspecified)	-10.85%	2.1% and 16.55%
Cn1cc(CN2CC3(CCN(C(=O)c4ccoc4)C3)C2)cn1	-3.355%	-18.82%
CCSc1ncc(CN2CC[C@@](O)(COC)C(C)(C)C2)cn1	18.47%	12.02%
Cc1c(C(=O)NCC2CCS(=O)(=O)C2)cnn1-c1ccccc1 (stereo unspecified)	-7.053%	2.473%
Cc1oc(-c2ccco2)nc1CN1CCc2cncnc2C1	-2.463%	4.583%
O=C1COc2ccc(C(=O)NS(=O)(=O)c3ccccc3F)cc2N1	-11.37%	14.34%
CCS(=O)(=O)N1CCC2(CCCN(c3ncc(F)cn3)C2)C1 (stereo unspecified)	-18.83%	-3.251% and -41.75%
COCCCN(CCOC)C(=O)Nc1ccc(C)cc1C	-5.223%	-3.509% and -3.911%
Cc1ccc(N2CCCC(NC(=O)Nc3cnn(C)c3)C2=O)cc1 (stereo unspecified)	-16.06%	-37.45%
Cc1cnn(C2CN(Cc3nnc(-c4ccccc4Cl)o3)C2)c1	-28.82%	-13.46% and -2.531%
CCc1c(C)nn2c(O)cc(C3CCN(C(=O)c4ccccn4)C3)nc12 (stereo unspecified)	-14.71% and -4.716%	-5.188%
NC(=O)C1CCN(C(=O)c2cc(-n3cnnn3)ccc2Cl)CC1	-17.02%	15.12%
COC(C)c1cccc(NC(=O)N(CCC#N)Cc2ccccn2)c1 (stereo unspecified)	14.88%	14.79% and 19.05%
O=C(NCCCn1nc2ccccn2c1=O)Nc1ccccc1	-39.29%	-31.39%
CC(C)c1nnc2ccc(N3CCC(C(=O)O)CC3)nn12	-6.692%	-15.23%
Cc1ncsc1C(=O)NCCCN1CCCCCC1=O	0.4988%	0.003965%
CCc1cc(CNC(=O)NCc2ccc(N3CCCCC3)cc2)on1	-5.064%	-6.958%
CC1CCN(C(=O)c2cn(-c3cc(N4CCOCC4)ncn3)cn2)CC1	-0.5886%	5.971%
Cn1cc(-c2ncnc3c2CCN(CC2CCOC2)CC3)cn1.O=C(O)C(F)(F)F (stereo unspecified)	-22.12%	-31.74%
c1cc(-c2noc([C@@H]3Cc4nc[nH]c4CN3)n2)ccn1	7.963%	-35.96% and 2.394%
CCCc1cc(N2CCCC2Cn2nc(C)cc2C)n2ncnc2n1 (stereo unspecified)	-3.758%	18.79%
CCN(Cc1cccc2c1OCO2)C(=O)Nc1cn[nH]c1	-10.19%	-4.783%
CCCN(CC1CC1)C(=O)Nc1ccc(N2CCSCC2)cc1C	16.28%	9.848% and 13.08%
Cc1noc(C2CCN(C(=O)c3cc(Cl)c(Cl)n3C)CC2)n1	6.251% and 14.07%	-6.645%
CN(CC(C)(C)O)C(=O)Nc1ccc(F)c(-n2cccc2)c1	-20.19%	-16.1%
CCN(Cc1c(F)cccc1Cl)c1cc(C2CCNCC2)nc(C)n1	34.14%	63.18%
Clc1ccc(-c2nnc(CNCCn3cccn3)o2)c(Cl)c1	-12.79%	-15.82%
CC(=O)N1N=C(c2cccs2)OC1C(=O)Nc1ccc(C)cc1 (stereo unspecified)	-10.85%	-3.913%
O=C(O)c1cc(-c2ccoc2)cc(S(=O)(=O)NCc2ccccn2)c1	7.257%	-12.9%
CC(CC(=O)N1CCCN(Cc2nccn2C)CC1)n1cccc1 (stereo unspecified)	3.609%	32.32%
[H][C@@]12CNC[C@]1([H])CN(Cc1c(C)noc1C)C2	3.331%	22.7%
N#Cc1ccccc1OCCN1CCCC(c2noc(C3CC3)n2)C1 (stereo unspecified)	-3.4% and -0.03045%	17.42%
CN(CC(N)=O)C(=O)c1cnc(-c2ccc(Cl)s2)s1	-24.01%	15.6% and 14.92%
CC(C)CNC(=O)c1nc2c(s1)CCN(C(=O)c1ccc(Cl)cc1)CC2	-10.92%	17.44% and 14.18%
CCN(Cc1ccc(C(C)=O)cc1)CC1CCOCC1	-30.06%	-9.79%
Cc1nc(CN(C)C2CCN(Cc3nc(C4CC4)no3)C2)no1 (stereo unspecified)	-3.886%	6.033%
Cc1csc2c(C3CCCN(C(=O)CCn4cncn4)C3)nc(C)n12 (stereo unspecified)	16.36%	20.05%

Source: ChEMBL document CHEMBL3988442, “University of Dundee, Small-Polar-MMV Screening Library” (2021).